These results are taken from publication PMC7842947.

Chains of the proteins cited; added tags and fusions are not shown. Lines headed by an entry give the natural chain unless they say otherwise; changes in a name come on top. Residues count along the entry.
UniProt Q6UVK1, residues 30-2322: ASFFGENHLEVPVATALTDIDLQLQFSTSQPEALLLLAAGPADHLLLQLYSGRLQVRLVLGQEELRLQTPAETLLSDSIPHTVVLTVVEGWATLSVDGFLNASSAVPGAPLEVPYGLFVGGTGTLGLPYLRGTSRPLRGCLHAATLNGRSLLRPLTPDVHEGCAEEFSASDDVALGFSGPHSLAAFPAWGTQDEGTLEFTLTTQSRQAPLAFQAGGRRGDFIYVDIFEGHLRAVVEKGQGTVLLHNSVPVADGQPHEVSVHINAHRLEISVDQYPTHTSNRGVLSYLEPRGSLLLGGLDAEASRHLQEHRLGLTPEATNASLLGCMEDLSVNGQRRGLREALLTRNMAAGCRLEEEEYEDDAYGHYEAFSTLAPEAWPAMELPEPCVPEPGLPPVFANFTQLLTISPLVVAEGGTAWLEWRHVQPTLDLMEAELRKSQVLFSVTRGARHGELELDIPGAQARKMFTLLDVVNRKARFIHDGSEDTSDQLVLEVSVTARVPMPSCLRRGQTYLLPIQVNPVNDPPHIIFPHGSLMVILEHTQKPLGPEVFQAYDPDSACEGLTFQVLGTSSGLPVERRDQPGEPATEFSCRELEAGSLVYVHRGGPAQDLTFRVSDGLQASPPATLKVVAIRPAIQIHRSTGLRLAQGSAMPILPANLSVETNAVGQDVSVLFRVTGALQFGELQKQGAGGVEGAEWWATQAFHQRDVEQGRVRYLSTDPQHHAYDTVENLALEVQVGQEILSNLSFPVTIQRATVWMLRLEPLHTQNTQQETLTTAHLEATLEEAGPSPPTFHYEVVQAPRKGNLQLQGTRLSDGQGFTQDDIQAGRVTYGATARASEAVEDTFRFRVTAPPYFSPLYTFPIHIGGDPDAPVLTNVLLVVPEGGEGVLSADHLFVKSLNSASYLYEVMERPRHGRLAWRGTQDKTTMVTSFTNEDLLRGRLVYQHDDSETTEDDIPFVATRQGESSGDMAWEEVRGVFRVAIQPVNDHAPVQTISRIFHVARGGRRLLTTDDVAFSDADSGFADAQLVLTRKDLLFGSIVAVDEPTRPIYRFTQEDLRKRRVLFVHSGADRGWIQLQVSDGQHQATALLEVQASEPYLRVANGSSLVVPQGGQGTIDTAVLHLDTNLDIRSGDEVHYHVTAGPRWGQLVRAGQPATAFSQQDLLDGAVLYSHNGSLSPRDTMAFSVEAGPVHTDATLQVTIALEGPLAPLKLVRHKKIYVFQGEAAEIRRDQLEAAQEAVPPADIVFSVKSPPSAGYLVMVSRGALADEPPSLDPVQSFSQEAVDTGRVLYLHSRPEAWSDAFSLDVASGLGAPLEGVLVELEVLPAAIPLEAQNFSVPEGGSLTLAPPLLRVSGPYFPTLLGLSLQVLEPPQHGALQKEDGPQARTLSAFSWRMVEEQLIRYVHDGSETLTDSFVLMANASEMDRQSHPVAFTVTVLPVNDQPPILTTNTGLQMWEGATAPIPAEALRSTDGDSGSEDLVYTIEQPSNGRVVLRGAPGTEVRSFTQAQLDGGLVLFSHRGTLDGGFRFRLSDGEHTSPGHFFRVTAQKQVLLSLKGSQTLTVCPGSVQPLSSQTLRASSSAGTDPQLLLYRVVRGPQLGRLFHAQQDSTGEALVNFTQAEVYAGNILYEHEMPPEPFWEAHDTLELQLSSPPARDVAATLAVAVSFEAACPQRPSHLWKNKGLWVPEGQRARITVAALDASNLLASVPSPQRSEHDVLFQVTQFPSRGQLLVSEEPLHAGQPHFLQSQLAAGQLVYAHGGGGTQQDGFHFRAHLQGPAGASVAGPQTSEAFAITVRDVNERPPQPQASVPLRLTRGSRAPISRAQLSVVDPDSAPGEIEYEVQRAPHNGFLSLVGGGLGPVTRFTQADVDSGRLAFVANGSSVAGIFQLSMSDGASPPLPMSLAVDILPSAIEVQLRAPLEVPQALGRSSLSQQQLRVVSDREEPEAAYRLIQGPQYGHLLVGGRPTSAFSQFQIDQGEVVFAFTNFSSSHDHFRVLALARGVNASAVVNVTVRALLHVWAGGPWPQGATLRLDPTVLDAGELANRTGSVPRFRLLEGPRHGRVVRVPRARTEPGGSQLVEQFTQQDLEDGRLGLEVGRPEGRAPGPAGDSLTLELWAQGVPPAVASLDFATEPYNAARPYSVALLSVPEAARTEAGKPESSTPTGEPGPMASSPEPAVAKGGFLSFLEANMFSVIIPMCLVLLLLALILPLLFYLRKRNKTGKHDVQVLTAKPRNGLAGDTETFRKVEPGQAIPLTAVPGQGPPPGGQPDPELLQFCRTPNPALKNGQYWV
UniProt Q189K3: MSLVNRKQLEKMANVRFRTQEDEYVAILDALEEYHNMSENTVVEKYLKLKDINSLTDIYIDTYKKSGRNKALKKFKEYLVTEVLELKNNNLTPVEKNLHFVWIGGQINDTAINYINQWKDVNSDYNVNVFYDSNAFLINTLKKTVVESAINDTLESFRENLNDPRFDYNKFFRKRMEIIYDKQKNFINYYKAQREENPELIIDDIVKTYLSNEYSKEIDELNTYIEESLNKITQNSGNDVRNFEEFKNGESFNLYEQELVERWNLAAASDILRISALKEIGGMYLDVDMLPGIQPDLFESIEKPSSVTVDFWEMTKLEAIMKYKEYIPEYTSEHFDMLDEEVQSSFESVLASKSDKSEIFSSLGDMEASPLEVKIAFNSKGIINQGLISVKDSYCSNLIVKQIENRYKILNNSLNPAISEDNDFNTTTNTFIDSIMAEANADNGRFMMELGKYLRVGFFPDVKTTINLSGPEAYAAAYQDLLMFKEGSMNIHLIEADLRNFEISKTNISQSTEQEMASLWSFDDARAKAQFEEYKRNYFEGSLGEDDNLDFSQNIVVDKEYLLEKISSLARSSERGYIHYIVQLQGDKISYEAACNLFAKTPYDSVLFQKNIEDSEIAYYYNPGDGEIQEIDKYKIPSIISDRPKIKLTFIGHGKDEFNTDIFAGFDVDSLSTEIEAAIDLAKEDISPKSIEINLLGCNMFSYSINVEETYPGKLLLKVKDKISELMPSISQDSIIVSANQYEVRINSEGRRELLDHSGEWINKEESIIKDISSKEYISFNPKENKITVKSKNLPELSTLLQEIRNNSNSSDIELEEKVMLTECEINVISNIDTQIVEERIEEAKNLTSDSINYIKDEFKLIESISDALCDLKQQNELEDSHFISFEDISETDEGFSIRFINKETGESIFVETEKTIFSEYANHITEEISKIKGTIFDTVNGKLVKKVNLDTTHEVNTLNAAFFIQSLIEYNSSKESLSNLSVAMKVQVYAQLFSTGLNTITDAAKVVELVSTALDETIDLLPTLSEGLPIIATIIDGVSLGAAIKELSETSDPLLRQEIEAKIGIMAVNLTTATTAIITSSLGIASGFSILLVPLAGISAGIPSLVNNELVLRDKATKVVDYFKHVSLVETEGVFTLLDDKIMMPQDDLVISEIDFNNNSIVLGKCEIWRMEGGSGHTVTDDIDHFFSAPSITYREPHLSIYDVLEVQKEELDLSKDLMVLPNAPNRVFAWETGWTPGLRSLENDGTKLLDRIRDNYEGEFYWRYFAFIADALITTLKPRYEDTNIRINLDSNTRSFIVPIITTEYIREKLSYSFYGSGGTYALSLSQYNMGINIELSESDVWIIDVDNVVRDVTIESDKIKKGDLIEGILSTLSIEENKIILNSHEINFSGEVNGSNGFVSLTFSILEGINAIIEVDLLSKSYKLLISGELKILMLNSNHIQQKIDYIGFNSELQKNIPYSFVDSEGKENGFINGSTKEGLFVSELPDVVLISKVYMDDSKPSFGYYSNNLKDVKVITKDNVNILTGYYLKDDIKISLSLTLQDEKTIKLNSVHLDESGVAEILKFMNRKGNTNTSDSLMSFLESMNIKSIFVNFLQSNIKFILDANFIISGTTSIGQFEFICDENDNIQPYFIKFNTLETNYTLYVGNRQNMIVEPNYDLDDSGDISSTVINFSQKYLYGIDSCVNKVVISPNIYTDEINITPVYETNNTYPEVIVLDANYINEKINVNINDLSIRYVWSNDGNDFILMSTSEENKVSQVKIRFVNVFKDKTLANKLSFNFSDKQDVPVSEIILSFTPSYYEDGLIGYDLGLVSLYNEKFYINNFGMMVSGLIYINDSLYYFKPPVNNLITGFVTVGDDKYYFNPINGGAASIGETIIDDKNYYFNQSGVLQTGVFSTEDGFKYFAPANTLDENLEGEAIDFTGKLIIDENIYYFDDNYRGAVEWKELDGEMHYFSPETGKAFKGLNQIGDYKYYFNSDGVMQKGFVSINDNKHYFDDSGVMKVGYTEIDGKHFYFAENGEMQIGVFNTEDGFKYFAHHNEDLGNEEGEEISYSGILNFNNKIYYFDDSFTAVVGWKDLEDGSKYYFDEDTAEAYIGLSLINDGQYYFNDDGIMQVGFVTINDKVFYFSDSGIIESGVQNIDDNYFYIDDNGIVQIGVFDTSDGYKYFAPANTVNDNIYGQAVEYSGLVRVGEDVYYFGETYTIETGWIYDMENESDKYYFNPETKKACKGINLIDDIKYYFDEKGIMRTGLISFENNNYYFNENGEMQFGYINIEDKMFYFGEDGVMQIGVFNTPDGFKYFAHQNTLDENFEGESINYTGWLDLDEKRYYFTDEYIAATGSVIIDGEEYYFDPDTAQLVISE

The target of this experiment is chondroitin sulfate proteoglycan 4 (CSPG4), endogenous on HeLa cells (human (endogenous in HeLa)) (UniProt Q6UVK1). The experiment in a line: cell-surface binding assay with immunoblot; only the binder purified. (In western blotting, separated proteins are transferred to a membrane and probed.)

No constants are given. Whether binding was seen depends on the method and setting. Some binding calls cover weakened binding; strength is not graded here.

For “TcdB1^1-2098 (from UniProt Q189K3 1-2098) (domain or fragment)”, the binding entry was “binds”.

Consider “TcdB1^544-2098 (from UniProt Q189K3 544-2098) (domain or fragment)”, for which the binding entry is given as “no binding”.
